In US12630850B2, “Enzymatic break down of chlorogenic acid in sunflower-containing products” (Chapman University, priority 2022, dated 2026):
Marks after values point to notes of the source that are not given here.

Legend:
[1] = Colorimetry of sunflower protein powders; details: for L* / a* / b*: protein isolate, enzyme present
[2] = CIE L*a*b* determination of greening, sunflower flour cookies; details: SFF cookies

B1: CGA esterase: CGA esterase from L. helveticus (Genbank ID: WP_025283955.1, Uniprot ID: U6F2K7), expressed in Escherichia coli; the dimer is the active form (protein, listed as Lactobacillus helveticus)
chain: MSRITIERDGLTLVGDREEPFGEIYDMAIIMHGFAANRNTDLLRQIADDLRDENVASVRFDFNGHGESDGKFEDMTVCNEIADGKAILDYVRTDPHVRDIFLVGHSQGGVVASMLAGLYPDVVKKVVLLAPAAQLKDDALRSNTQGATYDPNHIPDWPLVGNKLGMKLGGFYLRTAQVLPIYEVSQCFTRPVSVIAGTNDQWDPKYAKKYDEVYENSELHMIPNADHRFSGGYKDMAADLTAQFLKPAF
Color of enzymatically treated protein isolates ([1]; all three SFM types): pale shade of brown
L* ([1]; cold pressed): 39.86 ± 9.48
a* ([1]; cold pressed): −0.61 ± 0.21
b* ([1]; cold pressed): 6.11 ± 2.67
L* ([1]; hexane extracted): 34.28 ± 3.00
a* ([1]; hexane extracted): −0.48 ± 0.21
b* ([1]; hexane extracted): 6.70 ± 2.17
L* ([1]; undefatted): 43.05 ± 5.02
a* ([1]; undefatted): 1.18 ± 1.02
b* ([1]; undefatted): 8.14 ± 0.96
CIE a* ([2]; Direct Treatment, 0 hr): 8.26 ± 0.42^abc
CIE a* ([2]; Direct Treatment, 1 hr): 8.95 ± 0.41^ab
CIE a* ([2]; Direct Treatment, 3 hr): 8.66 ± 0.83^ab
CIE a* ([2]; Direct Treatment, 24 hr): 8.00 ± 0.56^abc
CIE a* ([2]; Pretreatment, 0 hr): 10.07 ± 0.53^a
CIE a* ([2]; Pretreatment, 1 hr): 9.67 ± 0.05^a
CIE a* ([2]; Pretreatment, 3 hr): 9.69 ± 0.23^a
CIE a* ([2]; Pretreatment, 24 hr): 9.84 ± 1.25^a
